PubChem BioAssay AID1671195 – Yale University | 2021
The deposit covers about 22,000 reagents; below is an unselected part. About 1,510 of all reagents (6.9%) were called active. 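Active includes knockdowns raising or lowering LDL uptake; positive z-scores mean more uptake, negative mean less.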 Entries without a mark were called inactive.

- Screen: 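Knockdowns that increase or decrease uptake of fluorescent LDL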 (primary screen)
- Cells: human Huh7 hepatoma cells
- Reagent: siRNA pool against human genes, 18 nM
- Timing: about 2 to 2.5 days of knockdown, then 8 h LDL uptake
- Challenge: DiI-labelled LDL at 30 µg/ml for 8 h, in lipoprotein-deficient serum medium
- Read-out: 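Fluorescent LDL signal imaged in cells, scaled to the plate median, robust z-score for each replicate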
- Reading the numbers: robust z-score: higher = more LDL uptake after knockdown
- Call rule: 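Active when two or more replicates show a robust z-score above 2 or below -2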

For HYAL2 (hyaluronidase 2), how do the results read?
robust z-score, replicate 1: 0.815; robust z-score, replicate 2: 0.907; robust z-score, replicate 3: 1.45

With NFKBIZ (NFKB inhibitor zeta), what was measured?
robust z-score, replicate 1: -0.846; robust z-score, replicate 2: -0.94; robust z-score, replicate 3: -0.761

With OR1F12P, what was measured?
robust z-score, replicate 1: 1.28; robust z-score, replicate 2: 0.212; robust z-score, replicate 3: 1.09

What is on record for EIF4G2 (eukaryotic translation initiation factor 4 gamma 2)?
robust z-score, replicate 1: 0.0256; robust z-score, replicate 2: -0.437; robust z-score, replicate 3: 0.023

How did the screen score KRIT1 (KRIT1 ankyrin repeat containing)?
robust z-score, replicate 1: -0.582; robust z-score, replicate 2: -0.647; robust z-score, replicate 3: -1.02

With LOC442091 (retired record), what was measured?
robust z-score, replicate 1: -1.06; robust z-score, replicate 2: -0.485; robust z-score, replicate 3: -1.05

What is on record for OLFM1 (olfactomedin 1)?
robust z-score, replicate 1: -2.15; robust z-score, replicate 2: -0.657; robust z-score, replicate 3: -1.44

With BAIAP2L1 (BAR/IMD domain containing adaptor protein 2 like 1), what was measured?
robust z-score, replicate 1: -0.685; robust z-score, replicate 2: 0.462; robust z-score, replicate 3: -1.17

What did the screen give for TTR (transthyretin)?
robust z-score, replicate 1: -0.163; robust z-score, replicate 2: -2.05; robust z-score, replicate 3: -1.4

Which result is listed for UHRF1 (ubiquitin like with PHD and ring finger domains 1)?
robust z-score, replicate 1: -0.247; robust z-score, replicate 2: -0.45; robust z-score, replicate 3: -0.277

With FYB1 (FYN binding protein 1), what does the deposit list?
robust z-score, replicate 1: 0.0764; robust z-score, replicate 2: -0.67; robust z-score, replicate 3: -0.106

For LINC02243 (long independently transcribed non-coding RNA 2243), how do the results read?
robust z-score, replicate 1: -2.02 (active); robust z-score, replicate 2: -2.1; robust z-score, replicate 3: -2.27
